Measured values from PubChem BioAssay AID504834 (National Center for Advancing Translational Sciences (NCATS), 2011).
Among all 320,000 compounds or so, about 22,000 (6.9%) were called active. The shares of active, inactive and inconclusive entries below differ from those in the screen. The call rests on the fitted dose curve; in most records, active means well fitted inhibition curve with a large enough effect; inconclusive means small, poorly fitted or top-dose-only effect, or another doubt; inactive means no such curve, though single readings can be large or run the other way. Potencies of inconclusive entries are doubtful fits and often do not repeat.

experiment: Primary qHTS for delayed death inhibitors of the malarial parasite plastid, 96 hour incubation; details: P. falciparum luciferase reporter growth; series mostly up to 28.7 µM; activity change, negative = inhibition: at the top concentration
Summary of the method: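 96 h incubation, 37 C, 5% CO2, of luciferase-reporter P. falciparum-infected RBCs (2% hematocrit, 0.05% parasitemia final) with test compounds; endpoint luminescence.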
On the % scale 0 is the no-effect control and ±100 the full control effect; potency means the concentration at half of the fitted maximal effect.

Structure (SMILES)	Potency	activity change, negative = inhibition
CCc1ccc(CN2CCCC(CCC(=O)N3CCN(c4ccccn4)CC3)C2)o1 (stereo unspecified)	inconclusive: 18.5 µM [inhibitor, single point]	–
Cc1cc(C)n2nc(SC(C)C(=O)N(C)c3ccccc3)nc2n1 (stereo unspecified)	inconclusive: 9.28 µM [inhibitor, partial curve, poor fit]	–
COc1ccc(NC(=O)c2cc(=O)[nH]c(=O)[nH]2)cc1S(=O)(=O)Nc1ccccc1Cl	inconclusive: 13.1 µM [inhibitor, single point]	–
CC1CCN(C(=O)C(NS(=O)(=O)c2cccc3nsnc23)C(C)C)CC1 (stereo unspecified)	–	inactive: -12.2%
O=C(Cn1[nH]c(=O)c2ccccc2c1=O)N1CC=C(c2ccccc2)CC1	–	inactive: -15.3%
CN(C(=O)c1ccc(NC(=O)Cc2cccc(NC(=O)C3CCN(C(=O)C4CCC4)CC3)c2)cc1)C1CCCC1	inconclusive: 13.1 µM [inhibitor, partial curve]	–
Cc1cccc(NC(=O)CSc2nnc(CNC(=O)c3ccc(S(=O)(=O)N(C)C)cc3)n2-c2ccc(F)cc2)c1	inconclusive: 18.5 µM [inhibitor, single point]	–
O=C(O)c1cccc(Nc2nc(N3CCOCC3)nc(N3CCOCC3)n2)c1	–	inactive: -4.71%
O=C(N/N=C(\c1ccccc1)c1ccccn1)c1cccc([N+](=O)[O-])c1	inconclusive: 2.94 µM [inhibitor, full curve, poor fit]	–
O=S(=O)(c1ccc(F)cc1)N1CCN(c2nc(-c3ccc(F)cc3)cs2)CC1	inconclusive: 3.7 µM [inhibitor, partial curve]	–
O=C(c1ccc2c(=O)n(C3CCCC3)c(=S)[nH]c2c1)N1CCCCCC1	inconclusive: 13.1 µM [inhibitor, single point]	–
Cc1[nH]c2ccccc2c1SCC(=O)N1CCCc2ccccc21	inconclusive: 11.7 µM [inhibitor, partial curve]	–
Cc1ccc2cc3cc(C(=O)NC4CC4)oc3nc2c1	inconclusive: 18.5 µM [inhibitor, partial curve, poor fit]	–
O=c1ccc(-c2ccc(S(=O)(=O)NCC3CCN(Cc4cccc(F)c4)CC3)s2)n[nH]1	inconclusive: 13.1 µM [inhibitor, single point]	–
CCOc1ccc(NC(=O)CSc2nc(=O)n(Cc3ccccn3)c3c2CCC3)cc1	inconclusive: 10.4 µM [inhibitor, single point]	–
COc1ccc(CC(=O)N/N=C(\C)c2cccs2)cc1OC	inconclusive: 14.7 µM [inhibitor, partial curve, poor fit]	–
c1ccc(Cc2noc(CN3CCN(CCOc4ccccc4)CC3)n2)cc1	inconclusive: 13.1 µM [inhibitor, single point]	–
Cc1ccc2nc(N3CCOCC3)c(C=O)cc2c1	–	inactive: -25.1%
Nc1ccc2[nH]ncc2c1	inconclusive: 0.185 µM [inhibitor, partial curve, poor fit]	–
Cc1ccc(OCCCn2ccnc2)c([N+](=O)[O-])c1	active: 6.57 µM	–
CC(C)Nc1ccc(C(CC(N)=O)NC(=O)c2ccc(Br)cc2)cc1[N+](=O)[O-] (stereo unspecified)	–	inactive: 7.76%
Cc1ccc2nc(N(CCCN(C)C)C(=O)c3ccc(S(=O)(=O)N(C)C)cc3)sc2c1	–	inactive: -27.7%

Structure (SMILES)	Potency	activity change, negative = inhibition
CN(C)S(=O)(=O)N1CCN(S(=O)(=O)N2CCOCC2)CC1	inconclusive: 0.0033 µM [inhibitor, full curve, poor fit]	–
CC(C)(C)c1[nH]nc2c1C(c1ccccc1OC(=O)N1CCOCC1)C(C#N)=C(N)O2 (stereo unspecified)	inconclusive: 14.7 µM [inhibitor, partial curve, poor fit]	–
Cc1cccc(NC(=S)NCc2ccc3[nH]c4c(c3c2)CCCC4)c1	inconclusive: 10.4 µM [inhibitor, single point]	–
Cc1ccc(C(=O)NCCNC(=O)c2ccc(C)o2)o1	inconclusive: 11.7 µM [inhibitor, single point]	–
Cc1[nH]c2ccccc2c1C(=O)C(C)OC(=O)c1ccc(NC(=O)CC#N)cc1 (stereo unspecified)	active: 3.29 µM	–
C=Cc1ccc(CSc2cc(C)nc3nc(C)nn23)cc1	inconclusive: 8.28 µM [inhibitor, partial curve, poor fit]	–
Cc1cc(Cl)ccc1OCC(=O)NCCOC(=O)Nc1sc(=S)n(C)c1C	active: 4.65 µM	–
O=c1nc2ccccc2c2n1CC(CN1CCN(C(c3ccccc3)c3ccccc3)CC1)N2 (stereo unspecified)	inconclusive: 0.928 µM [inhibitor, full curve]	–
COC(=O)c1sccc1NC(=S)N1CCC(C)CC1	inconclusive: 0.0465 µM [inhibitor, full curve, poor fit]	–
COc1cccc(NC(=O)CN(C)C(C)C(=O)NC(=O)NC2CCCCC2)c1 (stereo unspecified)	inconclusive: 8.28 µM [inhibitor, single point]	–
CCC1(CC)Cc2ccccc2-c2nc(CN3CCOCC3)[nH]c(=O)c21	inconclusive: 10.4 µM [inhibitor, partial curve, poor fit]	–
CCCCC(=O)Nc1nn(CC)c2nc3c(C)cccc3cc12	inconclusive: 0.0041 µM [inhibitor, full curve, poor fit]	–
Cc1oc(-c2ccc(Cl)cc2)nc1CN1CCCN(C(=O)c2ccco2)CC1	inconclusive: 0.0033 µM [inhibitor, full curve, poor fit]	–
COc1ccc(NCCc2ccccn2)cc1	–	inactive: 30.7%
Cn1c(N)c(C(=O)CSc2nnc(NC3CCCCC3)s2)c(=O)n(C)c1=O	active: 1.31 µM	–
CCc1nc(SCc2ccccc2C#N)n[nH]1	active: 9.28 µM	–
COc1cc(CN2CCNC(=O)C2CC(=O)N(C)CCCN2CCOCC2)cc(OC)c1 (stereo unspecified)	–	inactive: 3.55%
Cc1cc(Br)ccc1NS(=O)(=O)c1c(C)[nH]c(=O)[nH]c1=O	active: 5.22 µM	–
CC(C)(C)NC(=O)CN1CCCN(C(=O)COc2ccc(Cl)c3ccccc23)CC1	inconclusive: 18.5 µM [inhibitor, single point]	–
Cn1c(=O)n(C)c2cc(NS(=O)(=O)c3ccc(Cl)s3)ccc21	–	inactive: -0.691%
O=C(C1CCCC1)N1CCC(CC2CC(c3cccc(Br)c3)=NO2)(C(=O)NCC2CCCCC2)CC1 (stereo unspecified)	inconclusive: 4.15 µM [inhibitor, partial curve, poor fit]	–
COc1ccc(CCNc2c3ccccc3nc3ccccc23)cc1OC	active: 1.85 µM	–

Entries of single compounds as entered above.
Cc1ccc2nc(N3CCOCC3)c(C=O)cc2c1 is listed as activity change, negative = inhibition: inactive: -25.1%
Cn1c(=O)n(C)c2cc(NS(=O)(=O)c3ccc(Cl)s3)ccc21 is listed as activity change, negative = inhibition: inactive: -0.691%
CCC1(CC)Cc2ccccc2-c2nc(CN3CCOCC3)[nH]c(=O)c21 is listed as Potency: inconclusive: 10.4 µM [inhibitor, partial curve, poor fit]

Additional structures

Structure (SMILES)	Potency	activity change, negative = inhibition
Cc1cc(OC(C)C(=O)NCc2ccccn2)c2c(C)c(Cc3ccccc3)c(=O)oc2c1 (stereo unspecified)	–	inactive: -10.4%
COc1ccccc1-n1c(SCC(=O)NCc2ccc3c(c2)OCO3)nc2cc([N+](=O)[O-])ccc21	inconclusive: 18.5 µM [inhibitor, single point]	–
O=C(Nc1ccc(-c2noc(CCc3ccccc3)n2)cc1)c1ccco1	inconclusive: 0.0026 µM [inhibitor, full curve, poor fit]	–
Cc1cccc(CCN=c2c([N+](=O)[O-])nn(-c3ccccc3)n2O)c1	inconclusive: 18.5 µM [inhibitor, single point]	–
CCN(C(=O)C1CCCN(c2nc(-c3ccc(OC)cc3)no2)C1)c1ccccc1F (stereo unspecified)	inconclusive: 7.38 µM [inhibitor, partial curve]	–
COc1ccc(NS(=O)(=O)c2cccc(NC(=O)NC3CCCCC3)c2)cc1	inconclusive: 13.1 µM [inhibitor, partial curve]	–
CC(CN1CCN(C)CC1)OC(=O)c1cccc(Cl)c1 (stereo unspecified)	–	inactive: 47.5%
CCC(C)n1c(=S)[nH]c2ccccc2c1=O (stereo unspecified)	inconclusive: 16.5 µM [inhibitor, single point]	–
O=C(CN1C(=O)S/C(=C\c2ccccc2F)C1=O)NCCCn1ccnc1	inconclusive: 18.5 µM [inhibitor, partial curve, poor fit]	–
CC(C(=O)NCC1CCCO1)n1cc([N+](=O)[O-])cn1 (stereo unspecified)	inconclusive: 18.5 µM [inhibitor, single point]	–
COC(=O)c1c(N2C(=O)[C@H]3[C@@H](C2=O)[C@]2(C(=O)Nc4c2ccc(C)c4C)N2CCC[C@@H]32)sc(C)c1C	inconclusive: 18.5 µM [inhibitor, single point]	–
CC(=O)NC12CC3CC(C)(C1)CC(NC(C)=O)(C3)C2	–	inactive: -8.23%
Cc1cccc(C)c1NC(=O)/C(C#N)=C/c1cccs1	inconclusive: 10.4 µM [inhibitor, single point]	–
Cc1nc2ccc(NC(=O)c3ccc(S(=O)(=O)N(C)c4ccccc4)cc3)cc2s1	inconclusive: 9.28 µM [inhibitor, single point]	–
Cc1ccc(S(=O)(=O)/N=C(/c2ccc(F)cc2)N2CCCC2)cc1	–	inactive: 0%
CC(=O)c1cn(Cc2ccccc2)c(=O)n(Cc2ccc(F)cc2)c1=O	inconclusive: 8.28 µM [inhibitor, partial curve, poor fit]	–
Cc1ccccc1NC(=O)Cn1cc(C(=O)C2CC2)c2ccccc21	inconclusive: 0.0657 µM [inhibitor, full curve, poor fit]	–
CCc1noc(C)c1C(=O)N(Cc1ccccc1)c1c(N)n(CCOC)c(=O)[nH]c1=O	–	inactive: -15.2%
COC(=O)c1sccc1NC(=O)c1cc(-c2cccc(C)c2)nc2ccccc12	–	inactive: -95.7%
COc1cccc(NC(=O)c2ccnc(N3CCC(C(=O)NCc4ccccc4OC)CC3)c2)c1	inconclusive: 11.7 µM [inhibitor, partial curve, poor fit]	–
Cc1ccc(NC(=O)c2ccc(OCc3c(C)noc3C)cc2)cc1	inconclusive: 3.29 µM [inhibitor, partial curve]	–
C/C(=N\NC(=O)c1ccccc1[N+](=O)[O-])c1c(O)cc(C)oc1=O	–	inactive: 43.3%
